In all, about 52,000 sequences went through this assay and about 210 (0.4%) were called active.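 How the source made its calls: active means gene whose silencing raises cell survival under the drug, median off-target-corrected z-score across its silencing RNAs 2 or more; inactive means the rest.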 This is one part of the list.

A short description of this assay: Resistance to Poly (ADP-Ribose) Polymerase inhibitor: Gene Identification via Genome-wide siRNA Screen. To be noted: mouse BRCA2 R2336H ES cells, olaparib, CellTiter-Glo viability; active compounds read high. The method in brief: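 Genome-wide siRNA screen (3 siRNAs/gene, 20 nM) in mouse ES cells carrying hypomorphic BRCA2 R2336H; olaparib 500 nM added 48 h post-transfection, CellTiter-Glo viability 72 h later. Normalized to plate-median negative control; MAD z-scores, gene median, seed-adjusted.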
Background: In ATP-based viability assays light output follows the ATP content of the culture.
Take GGUACAAACUCUCCCUAGATT against Ube2c: the z-score was inactive: -1.45.

For the sequence GGUACUCUGAAAAGAUCGCTT against LOC240549, the z-score is inactive: 1.6.

As to CCAAGGUACUACUGGGAGATT against Sval3, the z-score is inactive: -1.88.

In the case of “GCUGUGAAAACGCAGUUACTT against 2900054P12Rik”, the z-score is inactive: 0.221.

Turning to CGAAAUGGACUUCAACUUCTT against Foxo6, the z-score is inactive: -0.445.

For GGAAAAUGCUGUCCAGUGGTT against Rdh11, the z-score is inactive: 0.345.

Turning to GGUAUUGGUUUCAUCCACCTT against Impdh2, the z-score was inactive: -0.768.

Consider UCUGUUUCUAACAAGUGCATT against Taar7e, for which the z-score is inactive: -1.09.

Regarding GCAAACUCGGACUUUCAAATT against Map2k1ip1, the z-score is inactive: -1.66.

For the sequence “GGCUAAGUGUGGAAUAGUUTT against 4933427D06Rik”, the z-score was inactive: -0.641.

As for GGAUCUUGGCUAAAGAGGGTT against Slc25a25, the z-score is inactive: -0.00305.

As to GGUUCAGCACAAAGAAACATT against Rapgef5, the z-score was inactive: -0.945.

In the case of GCCUCAAUUCCUCUACGCUTT against Sytl1, the z-score was inactive: 1.48.

For the sequence GGGACUCAACGCACUUUCUTT against Ambn, the z-score was inactive: -2.19.

On to GGAUGGAUCAUCUUUUCUATT against Nme2, for which the z-score is inactive: -0.561.

As for GGAAGCAGUAUCUCGGAAATT against Slc4a1ap, the z-score is inactive: 0.386.

On to GGUAUCAGGUACCAACGACTT against Cpne6, for which the z-score was inactive: 1.14.

On to GGACGGAAUCAGGAACAUUTT against Echdc3, for which the z-score was inactive: 2.31.

Take GCCGCACCGAAAGUGAAAUTT against Copz2: the z-score was inactive: -0.192.

On to GGACGUGCUUCCGAAUAGUTT against Scn1a, for which the z-score is inactive: 1.2.

Turning to GCUCCUGUACAGUUCAAACTT against Mrpl17, the z-score was inactive: 0.265.

With “GGAUAUCUUCUCCUAUUUUTT against 1200014J11Rik”, the z-score was inactive: -0.0433.

For “CCCUCAGGACACGUUUUAGTT against 2610014F08Rik”, the z-score is inactive: 0.929.

UAUUGUGGACCCAACAGGATT against Olfr1337: the z-score was inactive: -0.17.

Take GGUAUUGAUCAAUAUGACATT against Ddx46: the z-score is inactive: 0.141.

Take GCUGUGGUACAACCACAUUTT against Lrrc8: the z-score is inactive: 0.69.

In the case of CGAGGAGUGGUAUUUUUACTT against Slc34a1, the z-score is inactive: 0.208.

GGUGGGAAGUAUUUAUUUATT against Grasp: the z-score is inactive: -0.107.

In the case of GGCCUUGAAGUCUGAAUUCTT against Fgd2, the z-score was inactive: 0.102.

For the sequence GGUCAGAAACUUCACCAAGTT against Ccr6, the z-score is inactive: 0.0759.

Regarding CCCUGAGCGAUUCAAUCUGTT against Trim27, the z-score is inactive: -0.748.

For GCAUCGUCCUCCAAAGAUUTT against Sf3b1, the z-score was inactive: -3.23.

On to CCUGAAAACUCGUGAAGGGTT against Gnb1, for which the z-score is inactive: -0.016.

For the sequence GGGAACAUGUUUUACUCUUTT against Zfp521, the z-score is inactive: -0.448.

As for GGUUCUCUGUACAAGAGAUTT against Smarcb1, the z-score was inactive: -0.375.

With GGAAUGUCCAAAGCCUUCATT against Olfr907, the z-score is inactive: -1.68.

Turning to CCUUCAAGCUGUGCUUUUUTT against Olfr820, the z-score was inactive: -0.802.

Turning to GGCAAUGCUGGAUUCUCUATT against Solh, the z-score is inactive: 2.28.

On to GGUCUUGAAUUUAUGGAUUTT against Stab1, for which the z-score was inactive: 1.58.

As to GGACGGAGAGUUUAUUUUUTT against Ptgfrn, the z-score is inactive: 0.871.

Take GGUUACUAGAUGUAUUUUGTT against Ppp3cb: the z-score was inactive: 1.81.

As to CCAUAGACUGAAUCAACUATT against Rgs14, the z-score was inactive: -0.204.

With CCUUCAACCUUCGAGAUACTT against Kcnh2, the z-score is inactive: 0.797.

For GCUGUUUAUCUAGCUGUUATT against Mmp8, the z-score was inactive: 1.87.

As for CCUCAUCUAUCCCAUCUUUTT against Alad, the z-score was inactive: 1.01.

On to GGGAAGAGAAGUUAAAGGATT against Wnt8a, for which the z-score is inactive: 0.979.

In the case of “GGAAAAGUUUCCACAAACCTT against 1700028P05Rik”, the z-score was inactive: 0.506.

Turning to “GCUCUAAAACUGUGUACUCTT against 4930579K19Rik”, the z-score was inactive: -0.508.

Regarding ACACUCAUAGUCCAUUGUUTT against Gm1620, the z-score was inactive: -0.299.

Regarding GGUGUUACUAAUGUUUAUCTT against Cd209e, the z-score was inactive: 0.428.

For the sequence CCAGUGUAGAGCACAAAUCTT against Ahr, the z-score is inactive: 1.65.

For the sequence CCAGAAUCGAUAGGCAGUCTT against Capn10, the z-score is inactive: 1.18.

Turning to GGAAGGUUUGUUUUGUUUGTT against Slc24a3, the z-score is inactive: -0.0267.

For CCCAUCCUUCCAACCAGAATT against Coro2a, the z-score was inactive: -1.84.

For GGUUCCAUCUUCUCAGGACTT against Olfr395, the z-score was inactive: 1.59.

Regarding GGCACUGCACGACAUAGCUTT against Indo, the z-score was inactive: 2.61.

With GGCCCAGAGAGAAAAAUACTT against Acadvl, the z-score was inactive: 0.15.

On to GGAGAAAGGUGCUUCCGAUTT against Mrpl19, for which the z-score is inactive: -0.304.

Turning to GGUGACACAGCUGCUUUUCTT against Dact2, the z-score is inactive: 0.0343.

For GGGUUUCCACAGACAAUGUTT against V1rg10, the z-score is inactive: -0.26.

In the case of GCAAGAGCACUGCUUAAAATT against E2f1, the z-score is inactive: 1.53.

GGCAGAUAGUACUGAUCAATT against Spt1: the z-score is inactive: -2.25.

For the sequence GGUGUCUACUCUGAGUUGCTT against Usp52, the z-score is inactive: 1.11.

For the sequence CAUCCUAGACCUCCAAGCATT against Smr1, the z-score is inactive: 0.193.

As for CGUGAAAAGGAGUUUCAAGTT against BC021891, the z-score was inactive: 0.786.

Turning to CCAGAAACCGUGAUAAAAUTT against Immp2l, the z-score is inactive: 2.56.

Take GGACAACUACAUUGUACUGTT against Insr: the z-score is inactive: 0.537.

On to GGUGUUGUGAAGUCUUUUGTT against Xkh, for which the z-score was inactive: 0.677.

For the sequence “GGGUAUGAAUAUGAGUGCCTT against 4933417O08Rik”, the z-score was inactive: 0.136.

For the sequence GGAUUUCAUUAUGUAGACUTT against Rag1, the z-score was inactive: 0.558.

With CCCGAUGAAGUGUUUUUAGTT against Oosp1, the z-score was inactive: 0.6.

Regarding GGAUUUGCAUCUUAAGGAATT against ORF63, the z-score was inactive: -1.83.

As for GGAAAAACUGUGCAAAUAATT against Krtcap1, the z-score is inactive: -1.79.

As to GGCUCUUCUCAACUCCAAGTT against Lmna, the z-score was inactive: 0.338.

For the sequence CCGAGGUUGUGAAACGAUGTT against Trp63, the z-score is inactive: -0.83.

On to GGUGUAUCUGUUCUGUUAATT against Impg1, for which the z-score was inactive: -0.834.

Consider GCUACAUGAUGUUGUGCAGTT against Sec22l2, for which the z-score is inactive: 0.749.

For the sequence “GCAAGCUGUACGCCAAUGUTT against D8Ertd457e”, the z-score was inactive: -2.29.

Turning to GGUGAUUUUGACCAGUUCUTT against Cyp4v3, the z-score was inactive: -0.185.

On to GGGCCUGAUCUACCUGUUUTT against Slc6a18, for which the z-score was inactive: -1.

In the case of GGAUGUGAAGAUUGUCAUUTT against Usp5, the z-score is inactive: -1.73.

“GGUAUGCAACCUUGCCUUUTT against D11Ertd99e”: the z-score is inactive: 0.235.

For CGCGUGCUCUCAUUAAUGATT against Gna12, the z-score was inactive: -0.0774.

With GCAGAGAUAUCAAAUGGGATT against Atp6v1a1, the z-score is inactive: 0.491.

Take “GGCCAUCACUAAAUAAUGGTT against D2Ertd485e”: the z-score was inactive: -0.403.

Take GCUACAAAGAUCACGAAAATT against C2: the z-score was inactive: 0.899.

In the case of CCUAAUAGUGCCUAUGAUUTT against Smc2l1, the z-score is inactive: -1.85.

Turning to GGAUGUCACUGUUUCACAATT against Clic6, the z-score is inactive: 0.416.

“CCUUUUGAGAGCUCCAGAUTT against 2210013M04Rik”: the z-score was inactive: 1.27.

GGUCACCUUUAUGCUACUUTT against Traf1: the z-score was inactive: -1.51.

For the sequence CCAAGCCUACUACCAUCAUTT against Fabp3, the z-score is inactive: 1.04.

Take UCUUCCGACUGCCUUUCUGTT against Olfr1417: the z-score was inactive: 0.58.

With CGGAUUUACACCAGUACCATT against AI449175, the z-score was inactive: -0.285.

Turning to GGACCUAGAUUUUCUACACTT against Cask, the z-score was inactive: 1.12.

Regarding GGACUUUGAGUUAAAUGCATT against Myh7, the z-score is inactive: -0.00646.

Turning to GGAAGUCCUAGUCAUCUUUTT against Mgat2, the z-score was inactive: 0.739.

Regarding GGGAAAAUCAAACAAAACCTT against Tcfap4, the z-score is inactive: 3.27.

Take CGAAACUGGAGAUGUUAUATT against Serpine1: the z-score is inactive: 0.503.

Consider GCGAGAUGUCCUCAACAAGTT against Dusp16, for which the z-score is inactive: 2.16.

Take GGAGAAUGUGCCUACUUGATT against Clra: the z-score is inactive: 0.851.

As for GCUGACAAAACUGCUAAACTT against Catnb, the z-score is inactive: 2.33.

As to “GGAGUUUGAUGAAUCGUCCTT against 2610025M23Rik”, the z-score was inactive: -0.595.

In the case of “GCCCGAGGCAUUGAAUUUGTT against 5033425B17Rik”, the z-score is inactive: 0.983.

On to CCUACCUGAUUGUGACAUUTT against Arl6ip1, for which the z-score was inactive: -0.37.

Turning to GGUUUGUAUCUCACUUUUGTT against Olfr1247, the z-score is inactive: -0.109.
